Data as given in patent publication US6482651B1, “Aromatic esters for marking or tagging petroleum products” (United Color Manufacturing, Inc., priority 1999, dated 2002).

Experiment: Colour development of the marker with a base developing reagent, visual and spectrophotometric detection
Settings: for marker concentration determined on a spectrophotometer: developed
[1] = 4 ppm in diesel fuel, benzyltrimethylammonium hydroxide (2%) in 2-ethylhexanol
[2] = marked diesel diluted 10 ml in 90 ml unmarked diesel, benzyltrimethylammonium hydroxide (2%) in 2-ethylhexanol
[3] = developed with base developer in kerosene / fuel (Examples 2-8)

Row | Structure (SMILES) | developed color [2] | developed color [3] | wavelength of maximum absorption of developed color [3] | other results
1 | CCCC(=O)Oc1ccc(C2(c3ccc(OC(=O)CCC)c(C)c3)OC(=O)c3ccccc32)cc1C [Example 1, o-Cresolphthalein dibutyrate ester] | red |  |  | marker concentration determined on a spectrophotometer (4 mg/l marked diesel diluted 10 ml in 90 ml unmarked diesel): 0.4 ppm; developed color [1]: intense red; maximum absorbance of developed marker [1]: 580 nm; marker concentration determined on a spectrophotometer (diesel fuel dosed at 4 ppm, compared with standard): 4 ppm
2 | CCCC(=O)Oc1ccc(C2(c3ccc(OC(=O)CCC)c(C(C)CC)c3)OC(=O)c3ccccc32)cc1C(C)CC (centres unmarked) [Example 4] |  | much bluer shade of red than in Example 3 | around 580 nm | color of separated aqueous layer (two milligrams per liter of gasoline, 5% caustic soda solution): violet-red
3 | CCCC(=O)Oc1ccc(C2(c3ccc(OC(=O)CCC)cc3C)OC(=O)c3ccccc32)c(C)c1 [Example 5] | reddish violet | purple | around 582 nm | 
4 | CCCCCCCCCCCC(=O)Oc1ccc(C2(c3ccc(OC(=O)CCCCCCCCCCC)c4ccccc34)OC(=O)c3ccccc32)c2ccccc12 [Example 6] |  | clear turquoise | around 650 nm | 
5 | CCCC(=O)Oc1cc(C)c(C2(c3cc(C(C)C)c(OC(=O)CCC)cc3C)OC(=O)c3ccccc32)cc1C(C)C [Example 8, thymolphalein dibutryate ester] |  | clear blue | around 598 nm | developed color (home heating oil, dosage equivalent to 90 ppm, benzyltrimethylammonium hydroxide (2%) in 2-ethylhexanol): blue; developed color (ten milligrams per liter of xylene, benzyltrimethylammonium hydroxide (5%) in ethanol): blue
